PubChem BioAssay AID1259254 | NCATS | 2017
Test: 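Genome-wide screen for genes that prevent DNA re-replication in cancer cells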 (primary screen). Cells: human HCT116 colorectal cancer cells. Reagent: single siRNA against human genes. Timing: 3 days. Measurement: 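Imaged Hoechst DNA stain sorts each cell into a cycle phase by DNA amount; per plate, G2 fraction set to 0% for non-targeting and 100% for GMNN siRNA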. Reading the numbers: G2 robust z-score and G2 cells, % of GMNN control: higher = more G2 cells, more excess DNA replication. Rule for the call: 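An siRNA counts as active if its G2 robust z-score lies at least 5 MADs above the screen median; here such calls match roughly 38% of GMNN control or more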.
This is an unselected part of about 59,000 deposited reagents. Over the whole deposit, about 1,550 (2.6%) were called active. 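G2 share is only a proxy for re-replication; each gene was hit by three separate siRNAs, and active genes were retested.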 A number with no mark means an inactive call. The numbers tell different reagents against one gene apart. Further read-outs or replicates are left out here. No sequences are given here. The record does not give: the amount of reagent.

gene	reagent no.	G2 robust z-score	G2 cells, % of GMNN control
SRSF9 (serine and arginine rich splicing factor 9)	1	-0.214	1.46
SRSF9 (serine and arginine rich splicing factor 9)	2	2.2	18.4
SRSF9 (serine and arginine rich splicing factor 9)	3	4.42	34.1
COX7A1 (cytochrome c oxidase subunit 7A1)	1	-0.553	-0.926
COX7A1 (cytochrome c oxidase subunit 7A1)	2	0.46	6.2
COX7A1 (cytochrome c oxidase subunit 7A1)	3	4.61	35.4
HNF4A (hepatocyte nuclear factor 4 alpha)	1	-0.359	0.441
HNF4A (hepatocyte nuclear factor 4 alpha)	2	10.5 (active)	76.8
HNF4A (hepatocyte nuclear factor 4 alpha)	3	-0.135	2.02
MANBA (mannosidase beta)	1	-1.56	-8.01
MANBA (mannosidase beta)	2	-0.755	-2.35
MANBA (mannosidase beta)	3	7.77 (active)	57.6
ME3 (malic enzyme 3)	1	0.431	6
ME3 (malic enzyme 3)	2	3.35	26.6
ME3 (malic enzyme 3)	3	1.41	12.9
RNF224 (ring finger protein 224)	1	3.43	27.1
RNF224 (ring finger protein 224)	2	0.0757	3.5
RNF224 (ring finger protein 224)	3	-0.659	-1.67
RFC5 (replication factor C subunit 5)	1	-0.885	-3.26
RFC5 (replication factor C subunit 5)	2	1.53	13.8
RFC5 (replication factor C subunit 5)	3	0.202	4.39
C12orf42 (chromosome 12 open reading frame 42)	1	-0.466	-0.311
C12orf42 (chromosome 12 open reading frame 42)	2	-0.418	0.0259
C12orf42 (chromosome 12 open reading frame 42)	3	1.9	16.3
PDGFA (platelet derived growth factor subunit A)	1	-0.508	-0.61
PDGFA (platelet derived growth factor subunit A)	2	2.38	19.7
PDGFA (platelet derived growth factor subunit A)	3	0.329	5.28
ZNF558 (zinc finger protein 558)	1	-0.618	-1.38
ZNF558 (zinc finger protein 558)	2	-0.528	-0.746
ZNF558 (zinc finger protein 558)	3	1.7	14.9
MICU2 (mitochondrial calcium uptake 2)	1	0.857	9
MICU2 (mitochondrial calcium uptake 2)	2	-0.399	0.158
MICU2 (mitochondrial calcium uptake 2)	3	-0.531	-0.769
SAXO5 (stabilizer of axonemal microtubules 5)	1	-0.0339	2.73
SAXO5 (stabilizer of axonemal microtubules 5)	2	2.56	21
SAXO5 (stabilizer of axonemal microtubules 5)	3	-0.908	-3.42
DUSP29 (dual specificity phosphatase 29)	1	0.185	4.27
DUSP29 (dual specificity phosphatase 29)	2	4.57	35.2
DUSP29 (dual specificity phosphatase 29)	3	0.0179	3.09
ERICH6 (glutamate rich 6)	1	-0.226	1.38
ERICH6 (glutamate rich 6)	2	3.16	25.2
ERICH6 (glutamate rich 6)	3	-0.688	-1.87
NUDT16 (nudix hydrolase 16)	1	-0.565	-1.01
NUDT16 (nudix hydrolase 16)	2	-0.856	-3.06
NUDT16 (nudix hydrolase 16)	3	-0.178	1.71
LY75 (lymphocyte antigen 75)	1	-0.661	-1.68
LY75 (lymphocyte antigen 75)	2	-0.832	-2.89
LY75 (lymphocyte antigen 75)	3	1.65	14.5
R3HDM4 (R3H domain containing 4)	1	0.459	6.19
R3HDM4 (R3H domain containing 4)	2	1.06	10.4
R3HDM4 (R3H domain containing 4)	3	-0.188	1.65
HMGB3P27 (high mobility group box 3 pseudogene 27)	1	0.299	5.07
HMGB3P27 (high mobility group box 3 pseudogene 27)	2	0.609	7.25
HMGB3P27 (high mobility group box 3 pseudogene 27)	3	1.07	10.5
ARHGAP5 (Rho GTPase activating protein 5)	1	1.17	11.2
ARHGAP5 (Rho GTPase activating protein 5)	2	-0.751	-2.32
ARHGAP5 (Rho GTPase activating protein 5)	3	-1.33	-6.38
PTPRN2 (protein tyrosine phosphatase receptor type N2)	1	-0.709	-2.02
PTPRN2 (protein tyrosine phosphatase receptor type N2)	2	-0.608	-1.31
PTPRN2 (protein tyrosine phosphatase receptor type N2)	3	0.0809	3.54
SPG7 (SPG7 matrix AAA peptidase subunit, paraplegin)	1	0.424	5.95
SPG7 (SPG7 matrix AAA peptidase subunit, paraplegin)	2	0.233	4.6
SPG7 (SPG7 matrix AAA peptidase subunit, paraplegin)	3	-0.313	0.768
CACNA1H (calcium voltage-gated channel subunit alpha1 H)	1	1.95	16.7
CACNA1H (calcium voltage-gated channel subunit alpha1 H)	2	-0.168	1.78
CACNA1H (calcium voltage-gated channel subunit alpha1 H)	3	-1.4	-6.89
RBP2 (retinol binding protein 2)	1	-1.22	-5.63
RBP2 (retinol binding protein 2)	2	4.25	32.9
RBP2 (retinol binding protein 2)	3	1.5	13.5
TRAPPC5 (trafficking protein particle complex subunit 5)	1	1.17	11.2
TRAPPC5 (trafficking protein particle complex subunit 5)	2	0.669	7.67
TRAPPC5 (trafficking protein particle complex subunit 5)	3	0.394	5.74
H3C2 (H3 clustered histone 2)	1	1.24	11.7
H3C2 (H3 clustered histone 2)	2	0.0235	3.13
H3C2 (H3 clustered histone 2)	3	0.0893	3.6
WNK2 (WNK lysine deficient protein kinase 2)	1	-0.513	-0.642
WNK2 (WNK lysine deficient protein kinase 2)	2	0.388	5.7
WNK2 (WNK lysine deficient protein kinase 2)	3	2.53	20.8
PPP2R3C (protein phosphatase 2 regulatory subunit B''gamma)	1	-0.429	-0.0486
PPP2R3C (protein phosphatase 2 regulatory subunit B''gamma)	2	1.16	11.1
PPP2R3C (protein phosphatase 2 regulatory subunit B''gamma)	3	0.551	6.85
LOC644841 (retired record)	1	-0.0447	2.65
LOC644841 (retired record)	2	-0.888	-3.28
LOC644841 (retired record)	3	-0.442	-0.139
LOC644841 (retired record)	4	0.947	9.63
LOC644841 (retired record)	5	0.594	7.15
LOC644841 (retired record)	6	0.115	3.78
